Laboratory results: US20220331448A1, “COMPOSITIONS AND METHODS FOR TREATING SUCCINIC SEMIALDEHYDE DEHYDROGENASE DEFICIENCY (SSADHD)” (Washington State University, priority 2018, published 2022)

Tested on: aldh5a1+/+ and aldh5a1−/− mice
Assay: Time to immobilization (sedation) after acute i.p. bumetanide
Assay type: in vivo
Settings: 100 mg/kg i.p.
Excerpt: FIGS. 5A-5C—Intracellular chloride homeostasis, GABAergic neurotransmission and bumetanide in SSADHD (for abbreviations, see FIG. 1). (FIG. 5A) Schematic diagram of membrane ion transport and mechanism of action of bumetanide. (FIG. 5B) NKCC1 and KCC2 gene expression in the hypothalamus of aldh5a1+/+(n=5) and aldh5a1−/− (n=5) mice collected at postnatal day-of-life 20. Expression data were obtained using q-RT-PCR, validated pathway plates from Bio-Rad. (FIG. 5C) Time to sedation following acute dosing of 100 mg/kg bumetanide. Animals were evaluated at day of life (DOL) 20 and 24 for seizure events, and the time to immobilization (sedation) determined by visual recording using Noldus technology (see text). Bumetanide was administered intraperitoneally to the subject mice after 20 min. of initial observational recording, followed by an additional 20 minutes of recording. Total number of seizures was quantified in 5 min blocks of the total 40 min. recording period. Bumetanide was obtained from Enzo Life Sciences, Inc. (Farmingdale, N.Y., USA) and aseptically dissolved in DMSO vehicle. […] Abbreviations employed: n, number of animals studied; DOL, day of life; sec, seconds; min, minutes.
The potential therapeutic role of NKCC1 inhibition in SSADHD was next examined. […] Applicants' design was to quantify generalized tonic-clonic seizures in 5 minute epochs for 40 minutes in continuum. […]

SMILES: CCCCNc1cc(C(=O)O)cc(S(N)(=O)=O)c1Oc1ccccc1 [bumetanide]
- resistance to sedation in older (DOL 24) vs DOL 20 aldh5a1−/− mice: about 3 fold
